Results of single-concentration screens

Source: ChEMBL document CHEMBL3988442, “University of Dundee, Small-Polar-MMV Screening Library” (2021).

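Phenotypic screen: M. tuberculosis growth, cholesterol and DPPC medium, 4 days; the read-out is not stated. Concentration: 500 µM. The record gives no direction; compounds that gave an IC50 in retests scored well above the rest, so higher reads as more growth inhibition. Size under these conditions: about 18,000 compounds, about 900 of them at 50% or above in at least one test.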

Each number is a percent effect as filed.
The controls that fix the scale are not given in the record; negative values are as filed.
Compounds were drawn at random from those tested, without regard to their results.

{"smiles": "c1cc2nnnn2nc1NCC1CCCC1", "Percent Effect": -5.895}
{"smiles": "COc1ccc(CCC(=O)NC2CCN(C)CC2)cc1", "Percent Effect": -3.251}
{"smiles": "CCOCC(=O)NCC1(O)CCCc2ccccc21", "stereo": "stereo not given", "Percent Effect": 51.85}
{"smiles": "COc1cccc(NC(=O)N2CCN(C3CC3)CC2)c1", "Percent Effect": 14.65}
{"smiles": "Cc1ccc(C)c(OCC(=O)NCC[S+](C)[O-])c1", "stereo": "stereo not given", "Percent Effect": -11.34}
{"smiles": "COc1cccc(N2CCC(N)C2)c1", "stereo": "stereo not given", "Percent Effect": 66.9}
{"smiles": "COc1c(C)cnc(CN(C)C)c1C", "Percent Effect": 10.49}
{"smiles": "CC(C)[C@@H]1CN(C(=O)c2ccc(O)cn2)C[C@H]1N(C)C", "Percent Effect": 8.427}
{"smiles": "CC(C)CC(N)c1nc2ccccc2[nH]1", "stereo": "stereo not given", "Percent Effect": 25.41}
{"smiles": "Cc1cc(C)n(CCC(=O)NC2C=CS(=O)(=O)C2)n1", "stereo": "stereo not given", "Percent Effect": -2.316}
{"smiles": "CCCN(CCO)Cc1nc(CC(C)C)no1", "Percent Effect": 12.93}
{"smiles": "c1ccc(C/N=C2/CCCCCN2)nc1", "Percent Effect": 12.26}
{"smiles": "Nc1ccc(C(=O)N2C[C@@H]3CCC[C@H](C2)C(=O)N3)cn1", "Percent Effect": -4.115}
{"smiles": "CCOc1ccc(C(=O)N2CCCC(C(N)=O)C2)cn1", "stereo": "stereo not given", "Percent Effect": -0.5146}
{"smiles": "Cc1cccc(CCC(=O)N2CCNCC2)c1", "Percent Effect": 8.858}
{"smiles": "CN(Cc1nccs1)c1cc([C@H]2C[C@@H](O)C2)nc(N)n1", "Percent Effect": 14.42}
{"smiles": "Cc1cc(NC(=O)c2cscc2C)nc(=O)[nH]1", "Percent Effect": -19.9}
{"smiles": "CCS(=O)(=O)CCNC(=O)c1cn2cccnc2n1", "Percent Effect": -3.34}
{"smiles": "CN(C)CC(=O)N[C@@H]1CCOC[C@H]1OCc1cscn1", "Percent Effect": 13.39}
{"smiles": "CC(C)(C)OC(=O)N1CCCOC(CN)C1", "stereo": "stereo not given", "Percent Effect": 9.3}
{"smiles": "CC(C)CN1CCN(C(=O)N(C)C)CC1", "Percent Effect": -2.057}
{"smiles": "O=C(C1CCOC1)N1CCN(c2ccncc2Cl)CC1", "stereo": "stereo not given", "Percent Effect": -3.136}
{"smiles": "COCCCNCc1cccc(OC)c1", "Percent Effect": 9.566}
{"smiles": "CCC(CO)NC(=O)c1cc(N(C)C)ccn1", "stereo": "stereo not given", "Percent Effect": -4.297}
{"smiles": "O=C(c1ccco1)N1C[C@H](O)[C@@H](N2CCCCC2)C1", "Percent Effect": -8.017}
{"smiles": "Cc1nn(C)c(N(C)C)c1CNCc1cnn(C)c1", "Percent Effect": -6.124}
{"smiles": "CCN1CCN(Cc2ccc(OC)c(OC)c2)CC1", "Percent Effect": 6.83}
{"smiles": "CC1c2ccsc2CCN1CCC(=O)N(C)C", "stereo": "stereo not given", "Percent Effect": 18.86}
{"smiles": "O=C1CN(CC2CCNC2)CCN1", "stereo": "stereo not given", "Percent Effect": 0.06369}
{"smiles": "Nc1ccc(C(=O)N2C[C@H](O)[C@@H](N3CCCC3)C2)cn1", "Percent Effect": 2.203}
{"smiles": "COc1ccccc1C(=O)NCCc1cncn1C", "Percent Effect": 4.664}
{"smiles": "CNC(=O)[C@H](C)NS(=O)(=O)c1ccccc1F", "Percent Effect": -1.384}
{"smiles": "COc1cc(C)c(S(=O)(=O)N2C[C@@H](O)[C@@H](O)C2)cc1C", "Percent Effect": 27.54}
{"smiles": "COc1cccc(CNC(C)c2nnnn2C2CC2)c1", "stereo": "stereo not given", "Percent Effect": 4.593}
{"smiles": "CN(C)CCOc1cc(C#N)ccn1", "Percent Effect": -7.561}
{"smiles": "Cc1cccc(S(=O)(=O)NC2CCCNC2)c1C#N", "stereo": "stereo not given", "Percent Effect": -10.08}
{"smiles": "COc1ccc(CC#N)cc1S(C)(=O)=O", "Percent Effect": -20.63}
{"smiles": "COC(=O)c1ccc(C(O)C(F)F)cc1", "stereo": "stereo not given", "Percent Effect": 36.92}
{"smiles": "CN(C)c1ccc(CNC(=O)NC2CC2)cn1", "Percent Effect": -16.6}
{"smiles": "O=C(NCCO)NCc1ccncc1OCC(F)(F)F", "Percent Effect": 2.977}
{"smiles": "CCc1nnc(N)o1", "Percent Effect": -13}
{"smiles": "Brc1ccc2c(c1)OCCNC2", "Percent Effect": 53.73}
{"smiles": "O=C(CSc1ncccc1Br)N1CCCC1", "Percent Effect": 73.33}
{"smiles": "Cc1nnc2ccc(C(=O)NCCN3CCCC3)cn12", "Percent Effect": -41.19}
{"smiles": "COc1ccccc1C(O)c1ccccn1", "stereo": "stereo not given", "Percent Effect": -1.134}
{"smiles": "CCC(NC(=O)c1cccc(=O)[nH]1)c1nc(C)c[nH]1", "stereo": "stereo not given", "Percent Effect": 10.3}
{"smiles": "Cc1cccc(OCCC(=O)NCCS(C)(=O)=O)c1C", "Percent Effect": 0.9939}
{"smiles": "O=C(NCC(c1ccco1)N1CCCC1)c1cnn[nH]1", "stereo": "stereo not given", "Percent Effect": 0.5864}
{"smiles": "NCCc1nc(-c2ccc(F)cc2)c[nH]1", "Percent Effect": 23.04}
{"smiles": "CC(C)C1CNCCO1", "stereo": "stereo not given", "Percent Effect": -15.37}
{"smiles": "CC(=O)NC1CNc2ccccc2C1", "stereo": "stereo not given", "Percent Effect": -8.558}
{"smiles": "Cc1noc(C)c1S(=O)(=O)N(C)C", "Percent Effect": 9.088}

The last 4 entries again:

SMILES	Percent Effect
NCCc1nc(-c2ccc(F)cc2)c[nH]1	23.04%
CC(C)C1CNCCO1 (stereo not given)	-15.37%
CC(=O)NC1CNc2ccccc2C1 (stereo not given)	-8.558%
Cc1noc(C)c1S(=O)(=O)N(C)C	9.088%